## Primary screen of a compound library

Data taken from ChEMBL document CHEMBL3988442, “University of Dundee, Small-Polar-MMV Screening Library” (2021).

The filed quantity is “Percent Effect” (%).
The controls that fix the scale are not given in the record; negative values are as filed.
This is an unselected part of the compounds tested.
Two or more numbers in one place are separate tests of the same structure; such repeats can differ widely.

A: 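Phenotypic screen: M. tuberculosis growth, cholesterol and DPPC medium, 4 days; the read-out is not stated. Compounds at 50 µM. Higher reads as more growth inhibition (inferred: compounds with an IC50 in retests scored well above the rest). Size under these conditions: about 69,000 compounds, about 370 of them at 50% or above in at least one test.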
B: 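Phenotypic screen: M. tuberculosis growth, glucose 7H9 medium, 3 days; the read-out is not stated. Compounds at 50 µM. Higher reads as more growth inhibition (inferred: compounds with an IC50 in retests scored well above the rest). About 69,000 compounds were tested under these conditions; 1.1% (about 760) showed 50% or more at least once.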

- CCN1CCCC12CCN(Cc1cccnc1OC)CC2.O=C(O)C(F)(F)F.O=C(O)C(F)(F)F : A: 13.38%; B: 3.186% and -6.191%
- Cc1cn2c(n1)CCC(NC(=O)c1cc(Br)cn1C)C2 (configuration not stated) : A: -12.42%; B: -19.68%
- O=C1CCCN1Cc1ncn2c1CN(C(=O)c1cccc(F)c1)CCC2 : A: 5.446%; B: 25.18%
- CN(CC(C)(CO)CO)C(=O)Nc1cc(F)cc(F)c1 : A: 12.63%; B: 28.46% and 4.764%
- Cc1c(C)n(CC(O)CN2CCN(CCO)CC2)c2c(Cl)cccc12.Cl (configuration not stated) : A: 2.281%; B: 11.86%
- CSC1=Nc2c(cnn2-c2ccc(Cl)cc2)C2=NCCCN12 : A: 45.46%; B: 37.43%
- CCCSc1nn(CCN(C)C)c2nc3sc(C)c(CC)c3c(=O)n12 : A: 4.295%; B: 26.99%
- Cc1cccc(-c2nc(C)nn2CN2CCN(S(C)(=O)=O)CC2)c1 : A: 15.65%; B: -13.24%
- CN(CCc1cn[nH]c1)C(=O)C1CC(=O)N(Cc2cccnc2)C1 (configuration not stated) : A: -6.006%; B: -1.717%
- Cc1cc(NC(N)=O)ccc1OCC(F)(F)F : A: 5.271%; B: 28.57%
- CC(C)NC(=O)Nc1nc2c(s1)CN(C(=O)NCc1cccs1)CC2 : A: 5.695%; B: 20.99% and 16.14%
- COc1ccc(CCNC(=O)NC2CCCC2)cc1OC : A: 22.01%; B: -35.41%
- CCOC(=O)c1cnn(C2CCN(C(=O)CCC(C)C)CC2)c1N : A: 27.29%; B: 11.14%
- O=C(c1cccc2[nH]ccc12)N1CCC2(CCOC2)C1 (configuration not stated) : A: -12.46%; B: -16.16%
- CCc1ccccc1CNC(=O)CCc1cnn(C)c1 : A: -17.09%; B: 0.6645% and -0.03655%
- COc1ccc2c(c1)CCCN2C(=O)CNCC1CN(C)CCO1 (configuration not stated) : A: -24.12%; B: -16.39%
- Cn1nnc2c1CCN(Cc1ccncc1)C2COCc1ccccc1.O=C(O)C(F)(F)F.O=C(O)C(F)(F)F (configuration not stated) : A: 6.669%; B: 19.64% and 0.47%
- Cc1nc(C)n(C2CCCN(C(=O)Cc3ccc4c(c3)CCC4)C2)n1 (configuration not stated) : A: -21.45%; B: 26.74%
- CC(C)(C)NC(=O)CN1CCCC(c2ccc(C(=O)O)cc2)C1 (configuration not stated) : A: 3.695%; B: -2.19%
- COc1ccc(CNCC2CCN(c3ccccc3OC)C2)cc1O (configuration not stated) : A: 4.326%; B: 32.84% and 6.017%
- O=C(O)C(F)(F)F.[H][C@]12C[C@@H](C(=O)NCc3cccs3)CO[C@@]1([H])CCN(C1CCCC1)C2 : A: 2.839%; B: -18.01%
- O=C(c1n[nH]c2c1CCC2)N1CCCC1c1nc(-c2ccccc2)no1 (configuration not stated) : A: -19.86%; B: -29.72%
- CN(C)CCN1C(=O)CCCC12CCCN(Cc1cccs1)C2.O=C(O)C(F)(F)F.O=C(O)C(F)(F)F (configuration not stated) : A: 9.423%; B: -5.728%
- CC(C)CC(C)N(C)Cc1nnc(-c2ccco2)o1 (configuration not stated) : A: 3.466%; B: 24.52% and 40.04%
- Cn1cc(-c2ncc(C(=O)NCCCn3ccccc3=O)s2)cn1 : A: 1.947% and -10.67%; B: 15.06%
- O=C(O)C(F)(F)F.O=C(O)C(F)(F)F.[H][C@@]12CCCO[C@]1([H])[C@@H](OCc1ccncc1)CN2c1nnc(C)s1 : A: -24.22%; B: 20.92% and -3.893%
- CN1CCC(Nc2ccc(Cl)cc2OCC(F)(F)F)C1=O (configuration not stated) : A: -1.846%; B: 3.241%
- CC(C)N(Cc1ccc(Cl)c(Cl)c1)C(=O)Cn1cncn1 : A: -32.65%; B: -24.71% and 4.732%
- CN1Cc2cc(F)ccc2N(CC(O)C(F)(F)F)CCC1=O (configuration not stated) : A: -25.61%; B: -11.96%
- Cc1nc(C2CCN(Cc3ncc[nH]3)CC2)no1.O=CO : A: -20.62%; B: -7.719%
- Cc1ccc(C2CCCN2S(=O)(=O)N(C)CCc2ccccn2)o1 (configuration not stated) : A: -32.07%; B: -36.13%
- CN1CCC(NCC(O)c2cccc(OCc3ccccc3)c2)CC1 (configuration not stated) : A: 46.48%; B: 48.08%
- Cc1nn(C)cc1S(=O)(=O)NCC(C)Cn1cc(Cl)cn1 (configuration not stated) : A: -11.97%; B: -25.56%
- COc1ncccc1CNC1CCc2c(ccc(=O)n2CC2CC2)C1.O=C(O)C(F)(F)F.O=C(O)C(F)(F)F (configuration not stated) : A: -16.64%; B: 0.7242%
- CCC(C)NC(=O)c1cc(S(=O)(=O)N(C)C)c(C)s1 (configuration not stated) : A: -0.8546% and 17.1%; B: 18.13%
- COCCn1ccc(=O)c(OCC(=O)Nc2cccc(C(C)=O)c2)c1C : A: 2.147%; B: -7.41%
- CC(C)(C)c1ccc(C(=O)C2CCCN(C(=O)CNS(C)(=O)=O)C2)cc1 (configuration not stated) : A: -26.05%; B: -24.5%
- CC(C)Oc1cccc(CN(C)C(=O)Cc2ccon2)c1 : A: -16.73%; B: 34.93% and -55.91%
- C[C@@H]1CN(Cc2ccc(-c3ccncc3)cc2F)CC(C(N)=O)O1 (some centres not stated) : A: 10.37%; B: 1.007% and -22.22%
- [H][C@]12CCCCN1CCC[C@H]2Cn1ccnc1-c1nccn1C : A: 2.164%; B: -12.01%
- COCc1noc(-c2ccc(N3CCC[C@H]3CO)nc2)n1 : A: 22.83%; B: 7.513%
- CC(C)(CO)CCCNC(=O)NC1(c2cccc(F)c2)CC1 : A: -17.69%; B: 1.52%
- Cc1nc2ccccc2n1CCNCc1cccc(O)c1 : A: -4.879%; B: 1.28%

The first 5 entries again:

| Compound | A | B |
|---|---|---|
| `CCN1CCCC12CCN(Cc1cccnc1OC)CC2.O=C(O)C(F)(F)F.O=C(O)C(F)(F)F` | 13.38 | 3.186 and -6.191 |
| `Cc1cn2c(n1)CCC(NC(=O)c1cc(Br)cn1C)C2` (configuration not stated) | -12.42 | -19.68 |
| `O=C1CCCN1Cc1ncn2c1CN(C(=O)c1cccc(F)c1)CCC2` | 5.446 | 25.18 |
| `CN(CC(C)(CO)CO)C(=O)Nc1cc(F)cc(F)c1` | 12.63 | 28.46 and 4.764 |
| `Cc1c(C)n(CC(O)CN2CCN(CCO)CC2)c2c(Cl)cccc12.Cl` (configuration not stated) | 2.281 | 11.86 |